# Measured values as given in US12797409, “Heparan sulfate mimetics to improve glucose clearance” (THE REGENTS OF THE UNIVERSITY OF CALIFORNIA).
# Biological target: T1, Alpl (alkaline phosphatase) (Mus musculus) (UniProt P09242)
# T1 sequence (looked up, limits assumed): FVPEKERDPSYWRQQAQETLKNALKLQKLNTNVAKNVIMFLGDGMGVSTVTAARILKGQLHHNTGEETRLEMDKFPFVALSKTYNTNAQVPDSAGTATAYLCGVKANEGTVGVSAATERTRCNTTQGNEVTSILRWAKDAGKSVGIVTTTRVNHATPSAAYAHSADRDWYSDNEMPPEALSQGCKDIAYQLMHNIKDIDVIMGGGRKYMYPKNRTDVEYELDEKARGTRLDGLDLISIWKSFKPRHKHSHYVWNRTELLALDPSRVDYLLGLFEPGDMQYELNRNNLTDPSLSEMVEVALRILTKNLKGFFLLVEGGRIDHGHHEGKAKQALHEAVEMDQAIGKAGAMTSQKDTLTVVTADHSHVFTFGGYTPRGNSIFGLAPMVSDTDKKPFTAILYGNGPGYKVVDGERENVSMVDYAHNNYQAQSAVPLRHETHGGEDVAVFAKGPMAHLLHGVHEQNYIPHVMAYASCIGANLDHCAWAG
# Assay: flow cytometry
# Conditions: 5'-biotin, bound to streptavidin carrying biotinylated heparin (1:1:1); no significant cell surface binding to Ext1-/- mouse ES cells, 0-200 nM, 40 min in suspension; protein on the cell surface; protein details: endogenous on Ext1-/- mouse embryonic stem cells; label: AF488 (on streptavidin); single-stranded DNA; variant of Aptamer 19S
sequence,measurement,value
AGGTCAGATGGTGGATTCGAAGTGGGAGATGCGAGTGTACCTATGCGTG [Hep-SA-Scr (heparin-streptavidin-scrambled aptamer chimera)],binding result,no binding

# Where cells or extracts were used, other partners may take part. A negative result means that nothing was seen under these conditions. Protein sequences can lack the tags named with them.
